Test results as given in patent EP4703385A1 (Fortvita Biologics Inc., dated 2026).
These are yes or no findings as the source states them, for the method shown. Some entries that bind do so weakly or less than the wild type.

Protein sequences, listed by entry. Tags and fused reporters are not part of them. Residues count along the entry.
UniProt P29965, residues 108-261: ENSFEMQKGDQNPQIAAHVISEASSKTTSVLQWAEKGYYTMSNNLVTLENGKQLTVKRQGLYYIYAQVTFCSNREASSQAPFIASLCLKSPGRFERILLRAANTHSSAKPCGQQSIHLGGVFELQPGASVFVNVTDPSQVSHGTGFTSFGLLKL

B1: Hz33B9C5 (antibody, human IgG1, kappa, L234A L235A, V domains shown)
VH: QVQLVESGGGLVKPGGSLRLSCAASGFTFSDYYMYWIRQAPGKGLEWVSTISGGGTYTYSPDSVKGRFTISRDNAKNSLYLQMNSLRAEDTAVYYCARGEPGLAYWGQGTLVTVSS
VL: DIVMTQSPDSLAVSLGERATINCKASQSVDYYGDSYMHWYQQKPGQPPKLLIYASSNLESGVPDRFSGSGSGTDFTLTISSLQAEDVAVYYCQQSHEDPWTFGGGTKVEIKR
notes: Expressed in ExpiCHO cells; also called Antibody Hz33B9C5; humanized anti-CD40L antibody Hz33B9C5
B2: Hz47E2 (antibody, human IgG1, kappa, L234A L235A, V domains shown)
VH: EVQLVESGGGLVKPGGSLRLSCAASGFTFSDYAMSWVRQAPGKGLEWVSEISTVHTYTYYSDAVAGRFTISRDNAKNSLYLQMNSLRAEDTAVYYCARDRVLDYWGQGTLVTVSS
VL: DIVMTQSPDSLAVSLGERATINCRASESVEYYDTSLMQWYQQKPGQPPKLLIYAASNLESGVPDRFSGSGSGTDFTLTISSLQAEDVAVYYCQQTKKLPWTFGQGTKVEIKR
notes: Expressed in ExpiCHO cells; also called Antibody Hz47E2; humanized anti-CD40L antibody Hz47E2

Legend:
[1] = target: Human CD40 Ligand/TNFSF5 Protein, His, Flag Tag, active trimer (MALS verified) (human) (UniProt P29965); assay: screening by ELISA and luciferase assays after humanization
[2] = target: Human CD40 Ligand/TNFSF5 Protein, His, Flag Tag, active trimer (MALS verified) (human) (UniProt P29965); assay: competition ELISA: CD40L coated, antibody titrated from 20 ug/mL against biotinylated CD40-Fc (2 ug/mL working solution)

Binder	binding [1]	binding [2]
B1	binds	binds
B2	binds	binds
